# Experimental data taken from the supplement of paper PMC8728848.
# Some of the results follow.
# Assays:
# Assay in all cases: glycan array binding signal (z-score within array); higher = stronger binding
# Conditions in all cases: glycan notation: IUPAC condensed, linker removed
# [1] = biological target: Neu5Ac(a2-6)Gal(b1-4)GlcNAc(b1-6)[Gal(b1-3)GlcNAc(b1-3)]Gal(b1-4)Glc
# In short: (§1)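 Arrays were curated from the Consortium for Functional Glycomics database, 3228 in total, and kept only where the protein sequence was available. Binding is expressed as a within-array Z-score. This score was averaged across arrays of the same protein sequence at different concentrations or buffers and across linkers, and negative values can be read as non-binding.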
# [2] = biological target: Neu5Ac(a2-6)Gal(b1-4)GlcNAc(b1-6)[Gal(b1-3)]GalNAc
# In short: as §1
# [3] = biological target: Neu5Ac(a2-6)Gal(b1-4)GlcNAc6S
# In short: as §1
# [4] = biological target: Neu5Ac(a2-6)GalNAc
# In short: as §1
# [5] = biological target: Neu5Ac(a2-6)GalNAc(b1-4)GlcNAc
# In short: as §1
# [6] = biological target: Neu5Ac(a2-6)GalNAc(b1-4)GlcNAc6S
# In short: as §1
# [7] = biological target: Neu5Ac(a2-6)GlcNAc(b1-4)GlcNAc
# In short: as §1
# [8] = biological target: Neu5Ac(a2-6)GlcNAc(b1-4)GlcNAc(b1-4)GlcNAc
# In short: as §1
# [9] = biological target: Neu5Ac(a2-8)Neu5Ac
# In short: as §1
# [10] = biological target: Neu5Ac(a2-8)Neu5Ac(a2-3)Gal(b1-3)GalNAc(b1-4)[Neu5Ac(a2-3)]Gal(b1-4)Glc
# In short: as §1
# [11] = biological target: Neu5Ac(a2-8)Neu5Ac(a2-3)Gal(b1-3)GalNAc(b1-4)[Neu5Ac(a2-8)Neu5Ac(a2-3)]Gal(b1-4)Glc
# In short: as §1
# [12] = biological target: Neu5Ac(a2-8)Neu5Ac(a2-3)Gal(b1-4)Glc
# In short: as §1
# [13] = biological target: Neu5Ac(a2-8)Neu5Ac(a2-3)Gal(b1-4)GlcNAc
# In short: as §1
# [14] = biological target: Neu5Ac(a2-8)Neu5Ac(a2-3)[Gal(b1-3)GalNAc(b1-4)]Gal(b1-4)Glc
# In short: as §1
# [15] = biological target: Neu5Ac(a2-8)Neu5Ac(a2-3)[GalNAc(b1-4)]Gal(b1-4)Glc
# In short: as §1
# [16] = biological target: Neu5Ac(a2-8)Neu5Ac(a2-8)Neu5Ac
# In short: as §1
# [17] = biological target: Neu5Ac(a2-8)Neu5Ac(a2-8)Neu5Ac(a2-3)Gal(b1-4)Glc
# In short: as §1
# [18] = biological target: Neu5Ac(a2-8)Neu5Ac(a2-8)Neu5Ac(a2-3)[Gal(b1-3)GalNAc(b1-4)]Gal(b1-4)Glc
# In short: as §1
# [19] = biological target: Neu5Ac(a2-8)Neu5Ac(a2-8)Neu5Ac(a2-3)[GalNAc(b1-4)]Gal(b1-4)Glc
# In short: as §1
# [20] = biological target: Neu5Ac(a2-8)Neu5Ac(a2-8)Neu5Ac(a2-8)Neu5Ac(a2-3)[GalNAc(b1-4)]Gal(b1-4)Glc
# In short: as §1
# [21] = biological target: Neu5Ac(a2-8)Neu5Gc(a2-3)Gal(b1-4)GlcNAc
# In short: as §1
# [22] = biological target: Neu5Ac(b2-6)Gal(b1-4)GlcNAc
# In short: as §1
# [23] = biological target: Neu5Ac(b2-6)GalNAc
# In short: as §1
# [24] = biological target: Neu5Ac9Ac(a2-3)Gal(b1-4)GlcNAc
# In short: as §1
# [25] = biological target: Neu5Ac9Ac(a2-6)Gal(b1-4)GlcNAc
# In short: as §1
# [26] = biological target: Neu5Gc(a2-3)Gal(b1-3)GlcNAc
# In short: as §1
# [27] = biological target: Neu5Gc(a2-3)Gal(b1-3)[Fuc(a1-4)]GlcNAc
# In short: as §1
# [28] = biological target: Neu5Gc(a2-3)Gal(b1-4)Glc
# In short: as §1
# [29] = biological target: Neu5Gc(a2-3)Gal(b1-4)GlcNAc
# In short: as §1
# [30] = biological target: Neu5Gc(a2-3)Gal(b1-4)GlcNAc(b1-3)Gal(b1-4)GlcNAc(b1-2)Man(a1-3)[Neu5Gc(a2-3)Gal(b1-4)GlcNAc(b1-3)Gal(b1-4)GlcNAc(b1-2)Man(a1-6)]Man(b1-4)GlcNAc(b1-4)GlcNAc
# In short: as §1
# [31] = biological target: Neu5Gc(a2-3)Gal(b1-4)[Fuc(a1-3)]GlcNAc
# In short: as §1
# [32] = biological target: Neu5Gc(a2-6)Gal(b1-4)GlcNAc
# In short: as §1
# [33] = biological target: Neu5Gc(a2-6)GalNAc
# In short: as §1
# [34] = biological target: Neu5Gc(a2-8)Neu5Ac(a2-3)Gal(b1-4)GlcNAc
# In short: as §1
# [35] = biological target: Neu5Gc(a2-8)Neu5Gc(a2-3)Gal(b1-4)GlcNAc
# In short: as §1
# [36] = biological target: Neu5Gc(a2-8)Neu5Gc(a2-3)Gal(b1-4)GlcNAc(b1-3)Gal(b1-4)GlcNAc
# In short: as §1
# [37] = biological target: Neu5Gc(a2-8)Neu5Gc(a2-6)Gal(b1-4)GlcNAc
# In short: as §1
# [38] = biological target: Neu5Gc(b2-6)Gal(b1-4)GlcNAc
# In short: as §1
binder,measurement,setting,value
"Tp0751, 83732 (protein) MSYYHHHHHHLESTSLYKKAGFQHGHVPPRRIPPHDTFGALPTAALPSNARDTAAHPSDTADNTSGSSTTTDPRSHGNAPPAPVGGAAQTHTQPPVQTAMRIALWNRATHGEQGALQHLLAGLWIQTEISPNSGDIHPLLFFDREHAEITFSRASVQEIFLVDSAHTHRKTVSFLTRNTAISSIRRRLEVTFESHEVIHVRAVEDVARLKIGSTSMWDGQYTRYHAGPASAPSP",glycan array binding signal (z-score),[1],-0.122
same,glycan array binding signal (z-score),[2],-0.05
same,glycan array binding signal (z-score),[3],-0.301
same,glycan array binding signal (z-score),[4],0.257
same,glycan array binding signal (z-score),[5],-0.508
same,glycan array binding signal (z-score),[6],0.102
same,glycan array binding signal (z-score),[7],-0.395
same,glycan array binding signal (z-score),[8],-0.453
same,glycan array binding signal (z-score),[9],-0.322
same,glycan array binding signal (z-score),[10],-0.471
same,glycan array binding signal (z-score),[11],0.938
same,glycan array binding signal (z-score),[12],-0.367
same,glycan array binding signal (z-score),[13],0.24
same,glycan array binding signal (z-score),[14],-0.253
same,glycan array binding signal (z-score),[15],-0.022
same,glycan array binding signal (z-score),[16],-0.242
same,glycan array binding signal (z-score),[17],0.36
same,glycan array binding signal (z-score),[18],-0.594
same,glycan array binding signal (z-score),[19],-0.441
same,glycan array binding signal (z-score),[20],-0.293
same,glycan array binding signal (z-score),[21],-0.55
same,glycan array binding signal (z-score),[22],-0.267
same,glycan array binding signal (z-score),[23],-0.232
same,glycan array binding signal (z-score),[24],0.28
same,glycan array binding signal (z-score),[25],-0.145
same,glycan array binding signal (z-score),[26],0.052
same,glycan array binding signal (z-score),[27],-0.37
same,glycan array binding signal (z-score),[28],-0.489
same,glycan array binding signal (z-score),[29],-0.519
same,glycan array binding signal (z-score),[30],-0.177
same,glycan array binding signal (z-score),[31],-0.312
same,glycan array binding signal (z-score),[32],-0.007
same,glycan array binding signal (z-score),[33],-0.235
same,glycan array binding signal (z-score),[34],-0.436
same,glycan array binding signal (z-score),[35],-0.645
same,glycan array binding signal (z-score),[36],-0.398
same,glycan array binding signal (z-score),[37],-0.636
same,glycan array binding signal (z-score),[38],-0.3
